In PubChem BioAssay AID651635 (National Center for Advancing Translational Sciences (NCATS), 2012):
About 1,900 (0.47%) of roughly 400,000 compounds were called active. These results got no clear call from the source, so the numbers are uncertain. The call rests on the fitted dose curve; in most records, active means well fitted cell-killing curve with a large enough effect; inconclusive means small, poorly fitted or top-dose-only effect, or effect the other way; inactive means no such curve, though single readings can be large or run the other way.

Assay: Viability Counterscreen for Primary qHTS for Inhibitors of ATXN expression; further: nearly all actives have a fitted effect of over 40% in size
Settings: S2 cells (HEK-293 line with an ATXN2-luciferase reporter) viability, CellTiter-Fluor protease fluorescence, 24 h
Potency means the concentration at half of the fitted maximal effect.

Row | Compound | Potency
1 | CN1CCC(Nc2cccc(F)c2)CC1 | inconclusive: 2.82 µM
2 | O=C(NCC1(N2CCOCC2)CCCCC1)c1cc(F)c(F)cc1Cl | inconclusive: 3.98 µM
3 | O=C(NCC1(N2CCCCC2)CCCCC1)c1ccc(F)cc1 | inconclusive: 0.0891 µM
4 | COc1ccc(Cl)cc1C(=O)NCC1(N2CCOCC2)CCCCC1 | inconclusive: 0.1 µM
5 | O=c1[nH]c2ccccc2n1C1CCN(C(c2ccccc2OC(F)(F)F)c2nnnn2C2CCCCC2)CC1 (centres undefined) | inconclusive: 7.08 µM
6 | COc1cccc(C(=O)N(c2cc(C)cc(C)c2)C2CCN(C(=O)OC(C)(C)C)CC2)c1 | inconclusive: 44.7 µM
7 | CC(=O)N(c1ccccc1)C1CCNCC1 | inconclusive: 0.1 µM
8 | CCC(c1nnnn1C1CCCCC1)N1CCC(n2c(=O)[nH]c3ccccc32)CC1 (centres undefined) | inconclusive: 39.8 µM
9 | CCCN1CCC(Nc2cc(OC)cc(OC)c2)CC1 | inconclusive: 0.224 µM
